Measured values taken from article PMC5172536.
Results are given in words; binding and its absence hold for the method and conditions named. In cells and extracts the contact can be indirect. A result given as binding can be weak or reduced; the word gives no strength.

Target: T1, IκB kinase complex-associated protein (IKAP) (human (endogenous in HEK 293nt)) (UniProt O95163)
T1 sequence: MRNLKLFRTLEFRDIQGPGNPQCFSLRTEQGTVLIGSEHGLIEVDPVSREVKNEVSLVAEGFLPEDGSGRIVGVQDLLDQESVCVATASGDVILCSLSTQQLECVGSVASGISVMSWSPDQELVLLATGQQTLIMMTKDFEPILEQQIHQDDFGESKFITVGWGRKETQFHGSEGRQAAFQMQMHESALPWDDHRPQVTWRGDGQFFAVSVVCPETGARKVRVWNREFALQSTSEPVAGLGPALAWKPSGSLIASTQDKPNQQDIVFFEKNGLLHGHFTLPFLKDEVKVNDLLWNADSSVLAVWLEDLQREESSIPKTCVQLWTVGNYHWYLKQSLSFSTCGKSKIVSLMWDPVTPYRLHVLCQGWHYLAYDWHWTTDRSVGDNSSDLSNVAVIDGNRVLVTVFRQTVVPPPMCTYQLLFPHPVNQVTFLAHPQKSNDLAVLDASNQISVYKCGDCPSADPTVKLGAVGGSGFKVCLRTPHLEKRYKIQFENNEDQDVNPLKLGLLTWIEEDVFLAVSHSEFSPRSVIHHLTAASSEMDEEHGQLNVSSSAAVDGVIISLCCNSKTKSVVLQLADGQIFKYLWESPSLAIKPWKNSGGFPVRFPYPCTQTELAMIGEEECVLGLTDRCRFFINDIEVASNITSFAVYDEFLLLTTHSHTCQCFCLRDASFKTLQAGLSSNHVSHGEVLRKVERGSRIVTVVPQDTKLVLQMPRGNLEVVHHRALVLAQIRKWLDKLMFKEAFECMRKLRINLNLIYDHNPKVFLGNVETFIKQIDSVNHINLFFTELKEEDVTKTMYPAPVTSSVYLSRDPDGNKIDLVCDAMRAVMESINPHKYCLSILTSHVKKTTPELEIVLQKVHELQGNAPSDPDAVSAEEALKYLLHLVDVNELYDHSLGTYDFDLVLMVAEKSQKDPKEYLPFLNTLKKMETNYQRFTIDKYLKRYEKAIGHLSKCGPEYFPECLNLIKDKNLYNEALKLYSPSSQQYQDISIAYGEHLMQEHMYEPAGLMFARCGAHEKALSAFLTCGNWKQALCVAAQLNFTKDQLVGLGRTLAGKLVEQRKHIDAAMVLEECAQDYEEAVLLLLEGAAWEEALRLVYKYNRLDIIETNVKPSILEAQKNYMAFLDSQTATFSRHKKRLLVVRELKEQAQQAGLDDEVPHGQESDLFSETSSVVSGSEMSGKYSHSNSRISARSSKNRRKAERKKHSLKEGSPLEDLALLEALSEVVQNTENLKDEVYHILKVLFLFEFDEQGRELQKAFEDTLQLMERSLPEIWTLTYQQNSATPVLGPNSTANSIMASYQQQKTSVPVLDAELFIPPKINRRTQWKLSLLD
Assay: co-IP; endogenous IKAP precipitated with anti-IKAP antibody on protein A Dynabeads from HEK 293nt lysate; cells crosslinked with 0.1% formaldehyde, sonicated; IP buffer 50 mM HEPES pH 7.6, 500 mM LiCl, 1 mM EDTA, 0.7% DOC, 1% NP-40, 0.1% SDS; 12 h at 4°C; western blot

With ERK (human (endogenous in HEK 293nt)) the binding was “no binding”.
With “c-Jun N-terminal kinase (JNK) (human (endogenous in HEK 293nt))” the binding was “binds”.
“α-tubulin (human (endogenous in HEK 293nt))” was tested, and the binding was “binds”.
